Data source: PubChem BioAssay AID743454 (Peter MacCallum Cancer Centre, 2014)

Assay: 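Knock-downs lowering viability or raising caspase 3/7 activity in vorinostat-treated resistant cells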 (primary screen)
System: human HCT116-VR colon cancer cells, selected for vorinostat resistance
Reagent: siRNA pool against human genes, 40 nM siRNA pool
Duration: vorinostat for 24 h, read-out about 72 h after transfection
Treatment: vorinostat at 2.5 µM final
Detection: 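Cell viability by CellTiter-Fluor and caspase 3/7 activity by luminescence, each scaled to mock wells per plate, duplicates averaged, then robust z-scored over all plates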
Scale: viability robust z-score: higher = more viable cells than screen typical; caspase robust z-score: higher = more caspase 3/7 activity than screen typical
Hit rule: 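Hits are knock-downs in viability class RV1/RV2 or caspase class CA1/CA2, excluding ones that killed cells in the no-drug cell-count arm; hits then retested with single siRNAs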
Here is an unselected part of about 18,000 deposited reagents. Of all reagents, 450 (2.5%) are marked active. 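Single biological run; no consistent viability z cut-off exists, so the class columns, not z-scores, define the calls.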

no.	Target gene	viability hit class	caspase hit class	viability robust z-score	caspase robust z-score	Outcome
1	USPL1 (ubiquitin specific peptidase like 1)	no change	no change	-1.99	-0.08	inactive
2	NRF1 (nuclear respiratory factor 1)	no change	no change	0.34	1.5	inactive
3	PFAS (phosphoribosylformylglycinamidine synthase)	no change	no change	-0.87	-0.43	inactive
4	CEMP1 (cementum protein 1)	no change	no change	0.5	1.45	inactive
5	CBLC (Cbl proto-oncogene C)	no change	no change	1.2	0.54	inactive
6	FRMD4A (FERM domain containing 4A)	no change	no change	0.32	-1.43	inactive
7	DPYSL5 (dihydropyrimidinase like 5)	no change	no change	0.93	-0.41	inactive
8	SNRNP200 (small nuclear ribonucleoprotein U5 subunit 200)	no change	no change	-3.9	1.2	inactive
9	ZSWIM1 (zinc finger SWIM-type containing 1)	no change	no change	-0.25	0.15	inactive
10	ALDH1A1 (aldehyde dehydrogenase 1 family member A1)	no change	no change	-2.41	0.62	inactive
11	NCEH1 (neutral cholesterol ester hydrolase 1)	no change	no change	0.68	-0.43	inactive
12	UBE2C (ubiquitin conjugating enzyme E2 C)	no change	no change	0.3	0.28	inactive
13	GBA1 (glucosylceramidase beta 1)	no change	no change	-0.38	0.42	inactive
14	MACC1 (MET transcriptional regulator MACC1)	no change	no change	0.04	0.44	inactive
15	HAAO (3-hydroxyanthranilate 3,4-dioxygenase)	no change	no change	0.88	-0.73	inactive
16	LAT2 (linker for activation of T cells family member 2)	no change	no change	-0.22	-0.07	inactive
17	CEP126 (centrosomal protein 126)	no change	no change	0.7	-0.74	inactive
18	OBI1 (ORC ubiquitin ligase 1)	no change	no change	-0.11	0.6	inactive
19	CCER1 (coiled-coil glutamate rich protein 1)	no change	no change	0.29	-0.62	inactive
20	TMPRSS13 (transmembrane serine protease 13)	no change	no change	-0.3	-0.72	inactive
21	NME5 (NME/NM23 family member 5)	no change	no change	-0.24	2.31	inactive
22	COL3A1 (collagen type III alpha 1 chain)	no change	no change	-0.75	-0.46	inactive
23	MYOZ1 (myozenin 1)	no change	no change	-0.47	-0.87	inactive
24	SBSPON (somatomedin B and thrombospondin type 1 domain containing)	no change	no change	-0.66	2.04	inactive
25	RAET1G (retinoic acid early transcript 1G)	no change	no change	-1.14	-0.87	inactive
26	OR4F6 (olfactory receptor family 4 subfamily F member 6)	no change	no change	0.66	-0.72	inactive
27	OR5A2 (olfactory receptor family 5 subfamily A member 2)	no change	no change	0.12	0.76	inactive
28	PTPRZ1 (protein tyrosine phosphatase receptor type Z1)	no change	no change	-0.03	1.18	inactive
29	LZTFL1 (leucine zipper transcription factor like 1)	no change	no change	-0.21	0.56	inactive
30	SUDS3 (SIN3A corepressor complex component SDS3)	no change	no change	-0.29	-0.38	inactive
31	SPIB (Spi-B transcription factor)	no change	no change	-1.61	0.69	inactive
32	SELE (selectin E)	no change	no change	0.48	-1.33	inactive
33	PLK4 (polo like kinase 4)	no change	no change	-1.38	4.23	inactive
34	RBM47 (RNA binding motif protein 47)	no change	no change	-1.2	0.71	inactive
35	VTN (vitronectin)	no change	no change	0	4.25	inactive
36	EPS15L1 (epidermal growth factor receptor pathway substrate 15 like 1)	no change	no change	-0.78	1.15	inactive
37	SPATA33 (spermatogenesis associated 33)	no change	no change	-1.36	1.64	inactive
38	CDC14A (cell division cycle 14A)	no change	no change	0.5	0.09	inactive

Targets listed so far whose gene name begins with U or u (2):
Target gene	viability hit class	caspase hit class	viability robust z-score	caspase robust z-score	Outcome
USPL1 (ubiquitin specific peptidase like 1)	no change	no change	-1.99	-0.08	inactive
UBE2C (ubiquitin conjugating enzyme E2 C)	no change	no change	0.3	0.28	inactive

Next results:
no.	Target gene	viability hit class	caspase hit class	viability robust z-score	caspase robust z-score	Outcome
39	DTX3L (deltex E3 ubiquitin ligase 3L)	no change	no change	-2.14	2.01	inactive
40	RPS16 (ribosomal protein S16)	no change	no change	-4.86	-1.63	inactive
41	IGIP (IgA inducing protein)	no change	no change	0.55	-0.3	inactive
42	OR4C15 (olfactory receptor family 4 subfamily C member 15)	no change	no change	-1.49	3.86	inactive
43	TFAM (transcription factor A, mitochondrial)	no change	no change	0.68	0.42	inactive
44	FIS1 (fission, mitochondrial 1)	no change	no change	0.22	-0.9	inactive
45	LYSMD1 (LysM domain containing 1)	no change	no change	-0.64	-1.15	inactive
46	PGP (phosphoglycolate phosphatase)	no change	no change	0.41	-0.25	inactive
47	ZNF682 (zinc finger protein 682)	no change	no change	0.9	-0.76	inactive
48	TULP1 (TUB like protein 1)	no change	no change	1.58	0.52	inactive
49	RAB39A (RAB39A, member RAS oncogene family)	no change	no change	-0.04	-0.1	inactive
50	FKBP4 (FKBP prolyl isomerase 4)	no change	no change	0.03	0.69	inactive
51	SHE (Src homology 2 domain containing E)	no change	no change	-0.9	1.42	inactive
52	HSD3B2	no change	no change	2.1	-0.04	inactive
53	H3C7 (H3 clustered histone 7)	no change	no change	0.16	1.28	inactive
54	MUC1 (mucin 1, cell surface associated)	no change	no change	-0.06	3.16	inactive
55	TNIK (TRAF2 and NCK interacting kinase)	no change	no change	1	-0.28	inactive
56	MYO10 (myosin X)	no change	no change	1.19	-0.98	inactive
57	BMPR1B (bone morphogenetic protein receptor type 1B)	no change	no change	-0.21	-0.57	inactive
58	ZFP64 (ZFP64 zinc finger protein)	no change	CA2 (caspase activation)	-1.02	7	active
59	PIP4K2B (phosphatidylinositol-5-phosphate 4-kinase type 2 beta)	no change	no change	0.15	0.35	inactive
60	RTL3 (retrotransposon Gag like 3)	no change	no change	-1.2	-0.13	inactive
61	CHRD (chordin)	no change	no change	1.58	-0.4	inactive
62	SNX1 (sorting nexin 1)	no change	no change	-0.66	0.49	inactive
63	RASAL1 (RAS protein activator like 1)	no change	no change	0.04	0.38	inactive
64	DNAH6 (dynein axonemal heavy chain 6)	no change	no change	-0.03	-0.76	inactive
65	MPEG1 (macrophage expressed 1)	no change	no change	-1.04	-0.68	inactive
66	ATG7 (autophagy related 7)	no change	no change	0.2	-0.84	inactive
67	MVP (major vault protein)	no change	no change	-0.28	1.21	inactive
68	FIGLA (folliculogenesis specific bHLH transcription factor)	no change	no change	0.88	-0.6	inactive
69	POLR1F (RNA polymerase I subunit F)	no change	no change	-2.76	0.22	inactive
70	TRAF7 (TNF receptor associated factor 7)	no change	no change	0.24	-0.92	inactive
71	SPATA1 (spermatogenesis associated 1)	no change	no change	0.6	0.83	inactive
72	OR2T35	no change	no change	-0.4	-0.19	inactive
73	FOXC1 (forkhead box C1)	no change	no change	0.63	0.2	inactive
